# Laboratory results: the supplement of paper PMC4749390
# Structures can show the parent of a compound that is named as a salt. The list shows a part of the results. Repeats in this data set agree poorly, so a single value says little.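 Wild-type human LRH-1, a heavily sumoylated nuclear receptor, is tetracycline-inducible in stable JEG3 cells. RT-qPCR measured SUMO-sensitive APOC3 and MUC1 transcripts, which rise with SUMO-less LRH-1 or UBC9 knockdown, versus TBP and DMSO controls. Robust Z-scores beyond ±2 flagged primary hits, followed by toxicity and TBP filtering.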
# Test system: JEG3 expressing hLRH-1
# Experiment: APOC3 transcript change (ddCt vs TBP and DMSO), Z-score over library; higher = higher APOC3 expression
# Details: 10 µM; time (hr): 24
row,Compound,APOC3 transcript change (Z-score)
1,CC(=O)Oc1cc2c(s1)CCN([C@H](C(=O)C1CC1)c1ccccc1F)C2 [prasugrel],-1.92
2,O=C1CCC(N2C(=O)c3ccccc3C2=O)C(=O)N1 (stereo not drawn) [thalidomide],-0.00346
3,CC1(C)S[C@@H]2[C@H](NC(=O)Cc3ccccc3)C(=O)N2[C@H]1C(=O)O [penicillin g potassium],0.769
4,CCOc1ccc(NC(=O)CC(C)O)cc1 (stereo not drawn) [bucetin],0.563
5,CCN(CC)CCNC(=O)COc1ccc(OC)cc1 [mefexamide],-0.641
6,CC(N)C(=O)OC(C)(C)Cc1ccc(Cl)cc1 (stereo not drawn) [Alaproclate hydrochloride],-0.361
7,CC(=O)OCC1=C(C(=O)O)N2C(=O)[C@@H](NC(=O)Cc3cccs3)[C@H]2SC1 [cephalothin sodium],1.06
8,CC(=O)c1ccc2c(c1)Sc1ccccc1N2CCCN1CCN(CCO)CC1 [acetophenazine maleate],0.504
9,Cc1cccc(Nc2ccccc2C(=O)O)c1C [mefenamic acid],-0.178
10,CC(C)(C)C(=O)C(Oc1ccc(Cl)cc1)n1ccnc1 (stereo not drawn) [climbazole],-0.542
11,CCCc1cc(C(N)=S)ccn1 [protionamide],0.0556
12,NC(CO)C(=O)NNCc1ccc(O)c(O)c1O (stereo not drawn) [Benserazide hydrochloride],-0.0953
13,COc1ccc(CC2c3cc(OC)c(OC)cc3CC[N+]2(C)CCC(=O)OCCCCCOC(=O)CC[N+]2(C)CCc3cc(OC)c(OC)cc3C2Cc2ccc(OC)c(OC)c2)cc1OC (stereo not drawn) [atracurium besylate],0.686
14,Nc1nc(O)c2ncn(CCC(CO)CO)c2n1 [penciclovir],0.778
15,CC1=C(/C=C/C(C)=C/C=C/C(C)=C/C(=O)O)C(C)(C)CCC1 [tretinon],2.98
16,O=C(O)CCC(=O)c1ccc(-c2ccccc2)cc1 [fenbufen],-1.16
17,CCc1c2c(nc3ccc(OC(=O)N4CCC(N5CCCCC5)CC4)cc13)-c1cc3c(c(=O)n1C2)COC(=O)[C@]3(O)CC [irinotecan hydrochloride],0.361
18,CN[C@H]1CC[C@@H](c2ccc(Cl)c(Cl)c2)c2ccccc21 [sertraline hydrochloride],1.71
19,CO/C(O)=C1\C(C)=NC(C)=C(C(=O)OCC(C)C)C1c1ccccc1[N+](=O)[O-] (stereo not drawn) [nisoldipine],2.13
20,C[C@H]1O[C@H](O[C@H]2[C@H](O)[C@@H](O)[C@@H](O[C@H]3[C@H](O)[C@@H](O)C(O)O[C@@H]3CO)O[C@@H]2CO)[C@H](O)[C@@H](O)[C@@H]1N[C@H]1C=C(CO)[C@@H](O)[C@H](O)[C@H]1O (stereo partly drawn) [acarbose],0.631
21,C#C[C@]1(OC(C)=O)CCC2C3CCC4=C/C(=N/O)CCC4C3CC[C@@]21CC (stereo partly drawn) [norgestimate],0.153
22,O[C@H]1[C@H](O)[C@@H](O)[C@H](O)[C@@H](O)[C@H]1O [inositol],0.589
23,NCC[C@H](O)C(=O)N[C@@H]1C[C@H](N)[C@@H](O[C@H]2O[C@H](CN)[C@@H](O)[C@H](O)[C@H]2O)[C@H](O)[C@H]1O[C@H]1O[C@H](CO)[C@@H](O)[C@H](N)[C@H]1O [amikacin sulfate],-0.702
24,O=C1c2c(O)cccc2Cc2cccc(O)c21 [anthralin],0.876

row,Compound,APOC3 transcript change (Z-score)
1,CCn1cc(C(=O)O)c(=O)c2cc(F)c(N3CCNCC3)nc21 [enoxacin],-3.11
2,Cn1c(=O)c2nc[nH]c2n(C)c1=O [Aminophylline],-0.37
3,Fc1ccc([C@@H]2CCNC[C@H]2COc2ccc3c(c2)OCO3)cc1 [paroxetine hydrochloride],-0.622
4,O=C(CCCN1CCC(O)(c2ccc(Cl)cc2)CC1)c1ccc(F)cc1 [Haloperidol],-0.399
5,OCCN1C[C@H](O)[C@@H](O)[C@H](O)[C@H]1CO [miglitol],0.279
6,CC(=O)OCC[N+](C)(C)C [acetylcholine],-0.15
7,O=C(O)c1ccccc1C(=O)Nc1ccc(S(=O)(=O)Nc2nccs2)cc1 [phthalylsulfathiazole],0.385
8,COc1ccc(-n2nc(CCC(=O)N(C)O)cc2-c2ccc(Cl)cc2)cc1 [tepoxalin],1.44
9,CC1=C(/C=C/C(C)=C/C=C/C(C)=C\C(=O)O)C(C)(C)CCC1 [isotretinon],3.65
10,COc1c(C)c2c(c(O)c1C/C=C(\C)CCC(=O)OCCN1CCOCC1)C(=O)OC2 [mycophenolate mofetil],1.44
11,CC(=O)OCC(COC(C)=O)OC(C)=O [triacetin],0.436
12,CO[C@@]1(NC(=O)C(C(=O)O)c2ccc(O)cc2)C(=O)N2C(C(=O)O)=C(CSc3nnnn3C)CO[C@@H]21 (stereo partly drawn) [moxalactam disodium],-0.567
13,CC/C=C\C/C=C\C/C=C\C/C=C\C/C=C\CCCC(=O)OCC [omega-3-acid esters (epa shown)],-0.465
14,OCc1ccccc1O [salicyl alcohol],1.29
15,CSc1ccc2c(c1)C(N1CCN(C)CC1)Cc1ccccc1S2 (stereo not drawn) [Methiothepin mesylate],-0.111
16,CC(=O)Oc1cccc(C)c1 [meta-cresyl acetate],-0.491
17,CC1=NN(c2ccccc2)C(=O)C1 [3-methyl-1-phenyl-2-pyrazolin-5-one (mci-186)],0.173
18,Cc1nc(O)c(C#N)cc1-c1ccncc1 [milrinone],0.176
19,O=C(O)c1cc(O)c(O)c(O)c1 [gallic acid],-1.17
20,CCN[C@@H]1C[C@H](N)[C@@H](O[C@H]2OC(CN)=CC[C@H]2N)[C@H](O)[C@H]1O[C@H]1OC[C@](C)(O)[C@H](NC)[C@H]1O [netilmicin sulfate],-0.359
21,C[C@@H]1CC2C3CCC4=CC(=O)C=C[C@]4(C)[C@@]3(F)[C@@H](O)C[C@]2(C)[C@@]1(O)C(=O)COP(=O)(O)O (stereo partly drawn) [dexamethasone sodium phosphate],0.227
22,FC(F)(F)COCC(F)(F)F [flurothyl],-2.13
23,Oc1c(Cl)cc(Cl)c(Cl)c1Cc1c(O)c(Cl)cc(Cl)c1Cl [hexachlorophene],-1.11
24,Nc1nc(N)c2nc(CNc3ccc(C(=O)NC(CCC(=O)O)C(=O)O)cc3)cnc2n1 (stereo not drawn) [Aminopterin],-0.825

# Random excerpt: two entries already listed.
row,Compound,APOC3 transcript change (Z-score)
4,O=C(CCCN1CCC(O)(c2ccc(Cl)cc2)CC1)c1ccc(F)cc1 [Haloperidol],-0.399
10,COc1c(C)c2c(c(O)c1C/C=C(\C)CCC(=O)OCCN1CCOCC1)C(=O)OC2 [mycophenolate mofetil],1.44
